Experimental data taken from PMC4381077.
Results are given in words; binding and its absence hold for the method and conditions named.

Molecular target: T1, LARP7 La module (1-208), comprising the LAM and RRM1 regions with an N-terminal extension (human) (UniProt Q4G0J3)
T1 sequence: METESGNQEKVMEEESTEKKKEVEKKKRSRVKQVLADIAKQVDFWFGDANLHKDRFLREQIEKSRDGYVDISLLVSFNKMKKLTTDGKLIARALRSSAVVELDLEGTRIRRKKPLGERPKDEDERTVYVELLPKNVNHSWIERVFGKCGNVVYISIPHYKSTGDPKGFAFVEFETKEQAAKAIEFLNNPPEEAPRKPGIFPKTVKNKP
Experiment: native gel or EMSA; 32P-5'-labelled HP4 RNA mutated at G312C (50 nM) incubated 20 min at 4°C with both the La module and the C-terminal domain, buffer with 250 mM NaCl; La module held on the 3'-end of the RNA, supershift by the C-terminal domain looked for; both purified

- binding: no binding
B1: LARP7 C-terminal domain comprising the RRM2 (433-582) (domain or fragment, UniProt Q4G0J3 433-582)
chain: ANREECRTQEKVNATGPQFVSGVIVKIISTEPLPGRKQVRDTLAAISEVLYVDLLEGDTECHARFKTPEDAQAVINAYTEINKKHCWKLEILSGDHEQRYWQKILVDRQAKLNQPREKKRGTEKLITKAEKIRLAKTQQASKHIRFSEYD
